Experimental data reported in article PMC5763115, “Nesprin-2 Interacts with Condensin Component SMC2” (International Journal of Cell Biology, 2017).

The chains behind the UniProt entries cited, without tags or fusion partners. Residues count along the entry.
UniProt P02545, residues 1-646: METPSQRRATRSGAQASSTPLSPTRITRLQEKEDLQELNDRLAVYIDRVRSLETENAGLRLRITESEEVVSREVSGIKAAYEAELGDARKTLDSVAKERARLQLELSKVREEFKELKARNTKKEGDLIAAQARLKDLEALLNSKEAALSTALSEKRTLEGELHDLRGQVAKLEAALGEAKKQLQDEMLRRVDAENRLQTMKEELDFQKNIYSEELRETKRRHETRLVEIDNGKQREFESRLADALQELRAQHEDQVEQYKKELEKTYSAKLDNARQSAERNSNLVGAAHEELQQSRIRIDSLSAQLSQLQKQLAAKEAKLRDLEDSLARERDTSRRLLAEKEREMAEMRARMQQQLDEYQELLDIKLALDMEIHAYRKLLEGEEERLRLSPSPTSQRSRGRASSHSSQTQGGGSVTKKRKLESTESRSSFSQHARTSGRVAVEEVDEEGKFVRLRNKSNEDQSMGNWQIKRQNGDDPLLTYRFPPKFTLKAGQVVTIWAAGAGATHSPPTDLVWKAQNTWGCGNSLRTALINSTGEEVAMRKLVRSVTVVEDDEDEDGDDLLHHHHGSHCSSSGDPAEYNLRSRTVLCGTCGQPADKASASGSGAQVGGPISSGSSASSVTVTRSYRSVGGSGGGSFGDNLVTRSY
UniProt O95347: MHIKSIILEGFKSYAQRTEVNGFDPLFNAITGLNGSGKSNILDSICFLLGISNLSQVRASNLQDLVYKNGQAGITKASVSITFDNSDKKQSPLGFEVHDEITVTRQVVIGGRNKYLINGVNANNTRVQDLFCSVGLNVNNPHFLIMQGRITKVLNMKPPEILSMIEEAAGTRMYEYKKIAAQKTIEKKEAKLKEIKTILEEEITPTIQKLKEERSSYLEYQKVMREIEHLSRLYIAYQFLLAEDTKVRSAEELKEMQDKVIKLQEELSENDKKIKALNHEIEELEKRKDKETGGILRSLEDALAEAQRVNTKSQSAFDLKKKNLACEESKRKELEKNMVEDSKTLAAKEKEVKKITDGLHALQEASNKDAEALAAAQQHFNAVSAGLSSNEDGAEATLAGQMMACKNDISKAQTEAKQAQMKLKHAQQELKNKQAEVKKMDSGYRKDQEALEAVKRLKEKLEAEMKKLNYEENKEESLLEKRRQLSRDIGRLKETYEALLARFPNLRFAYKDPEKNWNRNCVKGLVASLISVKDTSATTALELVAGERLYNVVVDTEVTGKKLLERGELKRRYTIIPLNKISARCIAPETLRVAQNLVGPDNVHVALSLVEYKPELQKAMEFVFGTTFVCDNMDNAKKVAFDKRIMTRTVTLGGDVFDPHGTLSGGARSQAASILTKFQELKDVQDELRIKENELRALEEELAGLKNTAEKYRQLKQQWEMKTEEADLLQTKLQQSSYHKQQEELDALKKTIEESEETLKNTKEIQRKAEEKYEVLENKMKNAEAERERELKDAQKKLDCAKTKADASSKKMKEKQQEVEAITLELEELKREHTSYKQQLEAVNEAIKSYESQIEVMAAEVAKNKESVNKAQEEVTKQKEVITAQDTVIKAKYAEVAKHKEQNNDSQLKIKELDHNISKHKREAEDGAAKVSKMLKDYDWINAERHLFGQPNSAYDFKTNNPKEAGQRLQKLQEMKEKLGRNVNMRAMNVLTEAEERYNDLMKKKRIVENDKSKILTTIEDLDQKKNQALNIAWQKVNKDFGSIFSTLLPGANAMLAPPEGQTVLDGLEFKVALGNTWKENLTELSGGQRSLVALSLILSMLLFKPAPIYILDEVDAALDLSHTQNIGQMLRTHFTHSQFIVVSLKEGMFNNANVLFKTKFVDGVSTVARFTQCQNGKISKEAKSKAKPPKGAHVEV
UniProt O94901: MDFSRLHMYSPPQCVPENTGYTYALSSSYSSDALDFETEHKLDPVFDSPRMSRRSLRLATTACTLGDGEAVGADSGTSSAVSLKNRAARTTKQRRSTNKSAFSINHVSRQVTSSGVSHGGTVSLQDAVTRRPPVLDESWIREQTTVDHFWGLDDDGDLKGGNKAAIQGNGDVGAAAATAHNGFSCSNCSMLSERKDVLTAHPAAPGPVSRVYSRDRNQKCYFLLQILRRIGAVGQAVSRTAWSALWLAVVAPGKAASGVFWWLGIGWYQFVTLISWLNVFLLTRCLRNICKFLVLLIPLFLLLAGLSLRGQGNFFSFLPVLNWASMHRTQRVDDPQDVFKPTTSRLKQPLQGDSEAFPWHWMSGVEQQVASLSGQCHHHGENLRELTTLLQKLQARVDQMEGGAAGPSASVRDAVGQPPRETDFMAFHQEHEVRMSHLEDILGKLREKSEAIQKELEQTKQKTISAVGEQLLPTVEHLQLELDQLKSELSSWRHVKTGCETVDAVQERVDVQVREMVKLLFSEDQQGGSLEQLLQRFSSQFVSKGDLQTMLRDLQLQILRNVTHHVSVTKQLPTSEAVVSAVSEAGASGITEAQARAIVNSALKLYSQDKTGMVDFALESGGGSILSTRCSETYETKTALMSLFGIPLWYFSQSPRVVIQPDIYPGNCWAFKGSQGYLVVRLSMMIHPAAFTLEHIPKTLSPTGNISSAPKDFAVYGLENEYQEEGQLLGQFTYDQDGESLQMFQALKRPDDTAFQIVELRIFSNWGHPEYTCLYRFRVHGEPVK

Columns and labels:
[1] = target: Nesprin-2 giant (human (endogenous in HaCaT)) (UniProt Q8WXH0); assay: affinity purification with mass spectrometry; immunoprecipitation of endogenous Nesprin-2 from HaCaT cells with mAb K20-478 (and pAbK1); SDS-PAGE, Coomassie bands cut out and identified by mass spectrometry; GFP-specific mAb K3-184-2 as control
[2] = target: T1, GST-Nesprin-2-SMC (human) (UniProt Q8WXH0); assay: affinity purification with mass spectrometry; GST-Nesprin-2-SMC or GST on Glutathione-Sepharose beads incubated with HaCaT cell lysate; precipitate analysed by mass spectrometry; only the target purified
T1 sequence: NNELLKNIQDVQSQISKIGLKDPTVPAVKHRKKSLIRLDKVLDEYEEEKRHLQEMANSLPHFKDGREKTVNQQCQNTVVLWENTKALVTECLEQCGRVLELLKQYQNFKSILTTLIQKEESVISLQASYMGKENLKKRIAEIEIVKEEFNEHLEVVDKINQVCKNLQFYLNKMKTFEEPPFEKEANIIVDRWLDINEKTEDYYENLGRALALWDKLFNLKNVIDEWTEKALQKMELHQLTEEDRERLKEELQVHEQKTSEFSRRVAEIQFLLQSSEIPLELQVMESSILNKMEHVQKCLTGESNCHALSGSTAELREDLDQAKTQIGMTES

Row | binding [1] | binding [2] | Substance
1 | binds |  | Lamin A/C (from UniProt P02545 1-646)
2 |  | binds | Nesprin-2 giant (from UniProt Q8WXH0-1 1-6885)
3 | binds |  | SMC2 (from UniProt O95347 1-1197)
4 | binds |  | SUN1 (from UniProt O94901 1-785)

These are yes or no findings as the source states them, for the method shown. Binding seen in cells or lysates may run through a third protein. Here binding means that the protein was enriched with, or labelled near, the bait; the list need not be complete. For some of these results: Tags and fused reporters may be left off the sequences shown.
